Assay: Permeability test using Caco-2 cell model
Conditions: human
Protocol: Permeability Test: The permeability of SOMCL-9112 was evaluated using Caco-2 cell model.

CC(C)NCC(O)COc1ccc(CC(N)=O)cc1 (stereo not shown) [Atenolol, reference compound]
Papp B→A: 1.16 ± 0.17 ×10⁻⁶ cm/s
